Laboratory results as given in patent US20170368089A1, “COMPOSITION FOR PREVENTING OR TREATING COLITIS” (UNIVERSITY-INDUSTRY COOPERATION GROUP OF KYUNG HEE …, priority 2012, published 2017).
At least one structure is not confirmed: it was looked up by name or label, or the drawing left a doubt.

Columns and labels:
[1] = system: IL-6; experiment: IL-6 expression in colon tissue (ELISA), TNBS acute colitis, third experiment; format: in vivo, male mice (C57BL/6); conditions: FIGS. 16, 18, according to the medicine administration amounts (10, 20 mg/mouse kg)
Protocol: (§1) Meanwhile, 0.1 ml of normal saline solution was orally administered to the normal group. Since then, from the next day, the sample dissolved in normal saline solution was orally administered in the volume that was decided in advance one time a day for 3 days. At the next day after completing the sample administration, the experimental animals were suffocated to death with carbon dioxide, and the colon from appendix to the region just before the anus was removed from the colon region. At this time, as a medicine sample, the experiments using the butanol-soluble fraction of the Anemarrhena asphodeloides Bunge extract, Mangiferin, and a combined extract were separately performed at a distance of time, respectively, and the effects of the medicine samples on preventing or treating colitis were reasonably analyzed based on the group supplied with normal saline solution instead of a specific medicine in the model animals with acute colitis induced by TNBS for each of the experiments. […] While the supernatant was stored at −80° C., the expression amounts of IL-1 beta, IL-6, and TNF-alpha, which were proinflammatory cytokines, and the expression amount of IL-10, which was anti-inflammatory cytokine, were measured using a 96-well ELISA plate kits (Pierce Biotechology, Inc., Rockford, Ill., USA).

[2] = system: macrophagocyte treated with lipopolysaccharide (LPS) or peptidoglycan (PG); experiment: Anti-inflammatory effect in macrophagocyte treated with LPS or PG (Western blotting); format: cell-based, ICR male mice; conditions: FIG. 4, IRAK-1, p-IRAK-1, p65, p-p65 by Western blotting
[3] = system: IL-1 beta; experiment: IL-1 beta expression in colon tissue (ELISA), TNBS acute colitis, third experiment; format: in vivo, male mice (C57BL/6); conditions: FIGS. 16, 18, according to the medicine administration amounts (10, 20 mg/mouse kg)
Protocol: as §1

[4] = system: model animal with acute colitis induced by TNBS; experiment: Acute colitis induced by TNBS in mice, weight change and colon appearance (macroscopic score, colon length), third experiment; format: in vivo, male mice (C57BL/6); conditions: FIGS. 11-13; 10 and 20 mg/mouse kg orally
Protocol: All the mice were bred under the controlled environmental conditions of 50 ±10% of humidity and 20 to 22° C. of temperature, and the lighting was repeatedly on for 12 hours and off for 12 hours. A feed for a standard experiment (Samyang, Korea) was used as a feed, and water was freely taken. For all the experiments, one group was 6 mice. […] Meanwhile, 0.1 ml of normal saline solution was orally administered to the normal group. Since then, from the next day, the sample dissolved in normal saline solution was orally administered in the volume that was decided in advance one time a day for 3 days. […] At this time, as a medicine sample, the experiments using the butanol-soluble fraction of the Anemarrhena asphodeloides Bunge extract, Mangiferin, and a combined extract were separately performed at a distance of time, respectively, and the effects of the medicine samples on preventing or treating colitis were reasonably analyzed based on the group supplied with normal saline solution instead of a specific medicine in the model animals with acute colitis induced by TNBS for each of the experiments. The sample administration to the model animals with colitis induced by TNBS was stopped, and at the next day, the weights of the experimental animals were measured, and then, the measured weights were compared with the initial weights to calculate the change amounts of weights. […]

[5] = system: TNF-alpha; experiment: TNF-alpha expression in colon tissue (ELISA), TNBS acute colitis, third experiment; format: in vivo, male mice (C57BL/6); conditions: FIGS. 17, 18, according to the medicine administration amounts (10, 20 mg/mouse kg)
Protocol: as §1

[6] = system: IL-10; experiment: IL-10 expression in colon tissue (ELISA), TNBS acute colitis, third experiment; format: in vivo, male mice (C57BL/6); conditions: FIGS. 17, 18, according to the medicine administration amounts (10, 20 mg/mouse kg)

For `O=c1c2cc(O)c(O)cc2oc2cc(O)c([C@@H]3O[C@H](CO)[C@@H](O)[C@H](O)[C@H]3O)c(O)c12` [mangiferin, Mangiferin], which “expression amount of IL-6 in colon tissue (in words)” value [1] is on record?
Its value is “decreased”.

What about the “suppression of the inflammatory response in macrophagocyte (in words)” value [2] of the same molecule?
The value was “excellent anti-inflammatory effect”.

And the “expression amount of IL-1 beta in colon tissue (in words)” value [3]?
The value was “decreased”.

What about the “effect on alleviating or improving acute colitis induced by TNBS (weight change, macroscopic score, colon length, MPO activity; in words)” value [4] of the same molecule?
The value was “effect on alleviating or improving acute colitis induced by TNBS according to the concentration dependent”.

What about the “expression amount of TNF-alpha in colon tissue (in words)” value [5] of the same molecule?
Its value is “decreased”.

And the “expression amount of IL-10 in colon tissue (in words)” value [6]?
The value was “increased”.
